Measured values taken from the supplement of paper PMC10849652.
The other results are listed elsewhere or left out.

The chains behind the UniProt entries cited, without tags or fusion partners. Where a name states a change or a piece, a line headed by the entry shows the natural chain unless it says otherwise.
UniProt Q13685: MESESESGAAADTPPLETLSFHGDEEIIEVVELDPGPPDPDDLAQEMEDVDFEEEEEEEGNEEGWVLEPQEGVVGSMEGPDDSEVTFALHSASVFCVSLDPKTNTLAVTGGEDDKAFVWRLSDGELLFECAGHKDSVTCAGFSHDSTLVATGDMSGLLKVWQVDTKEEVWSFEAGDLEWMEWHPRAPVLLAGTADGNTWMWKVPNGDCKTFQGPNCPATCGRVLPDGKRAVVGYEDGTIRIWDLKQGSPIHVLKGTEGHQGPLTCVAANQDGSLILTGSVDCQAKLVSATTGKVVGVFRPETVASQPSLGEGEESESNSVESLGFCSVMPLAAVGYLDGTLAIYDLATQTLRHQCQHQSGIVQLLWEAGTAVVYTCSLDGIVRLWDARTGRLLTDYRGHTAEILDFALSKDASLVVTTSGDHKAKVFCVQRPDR
UniProt P33121: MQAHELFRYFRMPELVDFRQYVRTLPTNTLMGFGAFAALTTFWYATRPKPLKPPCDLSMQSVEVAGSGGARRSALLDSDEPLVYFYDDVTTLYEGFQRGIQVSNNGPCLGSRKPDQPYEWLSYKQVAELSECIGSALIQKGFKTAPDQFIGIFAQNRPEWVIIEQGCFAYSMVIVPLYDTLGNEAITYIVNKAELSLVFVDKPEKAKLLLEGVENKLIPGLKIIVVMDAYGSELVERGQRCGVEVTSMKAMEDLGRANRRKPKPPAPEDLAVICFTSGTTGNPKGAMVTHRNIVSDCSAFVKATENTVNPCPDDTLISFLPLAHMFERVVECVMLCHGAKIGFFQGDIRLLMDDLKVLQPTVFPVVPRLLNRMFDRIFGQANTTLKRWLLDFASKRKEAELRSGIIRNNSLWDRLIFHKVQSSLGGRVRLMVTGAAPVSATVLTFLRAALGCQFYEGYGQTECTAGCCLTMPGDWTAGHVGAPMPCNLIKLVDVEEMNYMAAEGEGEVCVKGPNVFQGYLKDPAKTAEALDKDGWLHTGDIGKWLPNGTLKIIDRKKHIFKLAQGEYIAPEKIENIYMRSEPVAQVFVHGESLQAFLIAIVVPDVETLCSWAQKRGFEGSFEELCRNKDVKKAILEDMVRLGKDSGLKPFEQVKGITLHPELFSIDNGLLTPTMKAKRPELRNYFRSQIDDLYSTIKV
UniProt Q99758: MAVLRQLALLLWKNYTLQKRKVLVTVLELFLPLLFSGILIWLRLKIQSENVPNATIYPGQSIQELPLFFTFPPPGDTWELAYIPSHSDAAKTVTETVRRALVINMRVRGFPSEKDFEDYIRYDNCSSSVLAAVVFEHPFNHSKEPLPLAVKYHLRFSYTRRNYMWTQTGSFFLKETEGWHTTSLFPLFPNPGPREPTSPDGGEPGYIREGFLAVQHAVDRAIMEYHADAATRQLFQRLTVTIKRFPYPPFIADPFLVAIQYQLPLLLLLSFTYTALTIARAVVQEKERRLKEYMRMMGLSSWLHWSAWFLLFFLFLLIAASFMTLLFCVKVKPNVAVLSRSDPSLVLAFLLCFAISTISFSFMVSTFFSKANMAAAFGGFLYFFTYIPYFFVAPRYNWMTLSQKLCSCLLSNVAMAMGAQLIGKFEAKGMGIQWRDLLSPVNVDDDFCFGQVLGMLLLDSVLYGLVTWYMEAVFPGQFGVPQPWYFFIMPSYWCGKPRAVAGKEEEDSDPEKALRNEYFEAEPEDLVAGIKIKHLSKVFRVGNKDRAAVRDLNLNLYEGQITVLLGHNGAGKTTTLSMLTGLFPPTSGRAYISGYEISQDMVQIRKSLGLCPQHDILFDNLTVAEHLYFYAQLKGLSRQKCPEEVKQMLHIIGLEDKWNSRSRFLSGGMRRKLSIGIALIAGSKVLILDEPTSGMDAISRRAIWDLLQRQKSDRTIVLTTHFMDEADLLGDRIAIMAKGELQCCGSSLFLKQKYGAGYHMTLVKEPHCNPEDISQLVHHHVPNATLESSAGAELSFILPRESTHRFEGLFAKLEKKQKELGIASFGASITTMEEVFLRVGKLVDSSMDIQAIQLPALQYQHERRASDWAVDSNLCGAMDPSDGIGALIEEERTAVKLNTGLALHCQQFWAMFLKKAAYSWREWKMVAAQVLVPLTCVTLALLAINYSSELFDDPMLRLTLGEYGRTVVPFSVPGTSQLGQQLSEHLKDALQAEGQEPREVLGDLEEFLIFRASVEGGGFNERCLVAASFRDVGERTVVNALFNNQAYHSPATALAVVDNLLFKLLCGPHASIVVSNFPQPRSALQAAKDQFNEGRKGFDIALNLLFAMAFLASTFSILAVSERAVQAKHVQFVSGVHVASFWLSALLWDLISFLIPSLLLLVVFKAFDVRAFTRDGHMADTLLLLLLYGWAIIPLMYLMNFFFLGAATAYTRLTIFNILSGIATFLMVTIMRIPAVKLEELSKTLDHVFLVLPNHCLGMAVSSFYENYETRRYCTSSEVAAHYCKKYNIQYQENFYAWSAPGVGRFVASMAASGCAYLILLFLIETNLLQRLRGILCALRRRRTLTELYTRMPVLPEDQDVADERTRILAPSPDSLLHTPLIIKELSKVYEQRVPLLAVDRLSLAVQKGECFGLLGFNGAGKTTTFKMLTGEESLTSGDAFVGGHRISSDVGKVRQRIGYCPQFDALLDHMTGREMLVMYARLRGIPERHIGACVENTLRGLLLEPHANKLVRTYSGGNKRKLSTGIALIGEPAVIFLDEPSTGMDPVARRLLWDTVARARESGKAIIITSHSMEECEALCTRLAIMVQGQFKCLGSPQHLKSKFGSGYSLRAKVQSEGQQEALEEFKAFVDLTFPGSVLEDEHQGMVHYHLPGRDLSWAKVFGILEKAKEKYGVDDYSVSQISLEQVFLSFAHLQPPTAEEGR
UniProt P11117: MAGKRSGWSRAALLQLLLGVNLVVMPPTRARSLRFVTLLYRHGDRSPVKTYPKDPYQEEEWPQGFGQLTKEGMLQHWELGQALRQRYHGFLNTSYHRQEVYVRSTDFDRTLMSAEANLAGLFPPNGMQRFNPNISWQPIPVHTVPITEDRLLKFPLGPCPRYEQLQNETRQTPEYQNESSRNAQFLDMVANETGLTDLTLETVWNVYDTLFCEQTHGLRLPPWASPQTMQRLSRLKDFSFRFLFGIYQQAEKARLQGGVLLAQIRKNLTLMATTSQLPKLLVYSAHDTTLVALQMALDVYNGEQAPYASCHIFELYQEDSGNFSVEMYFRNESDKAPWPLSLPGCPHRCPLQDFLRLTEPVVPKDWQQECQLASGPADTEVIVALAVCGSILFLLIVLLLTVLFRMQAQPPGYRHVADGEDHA
UniProt Q9Y312: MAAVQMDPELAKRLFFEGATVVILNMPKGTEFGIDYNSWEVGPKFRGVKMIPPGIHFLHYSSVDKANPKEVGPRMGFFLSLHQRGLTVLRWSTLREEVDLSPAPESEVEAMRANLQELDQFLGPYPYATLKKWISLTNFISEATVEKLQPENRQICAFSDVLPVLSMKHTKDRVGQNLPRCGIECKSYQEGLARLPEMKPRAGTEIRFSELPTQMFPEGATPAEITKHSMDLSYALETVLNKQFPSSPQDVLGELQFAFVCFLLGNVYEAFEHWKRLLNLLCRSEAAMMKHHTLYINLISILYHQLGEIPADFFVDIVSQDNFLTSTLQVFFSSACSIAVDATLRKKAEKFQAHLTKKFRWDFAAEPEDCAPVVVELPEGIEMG
UniProt P24666: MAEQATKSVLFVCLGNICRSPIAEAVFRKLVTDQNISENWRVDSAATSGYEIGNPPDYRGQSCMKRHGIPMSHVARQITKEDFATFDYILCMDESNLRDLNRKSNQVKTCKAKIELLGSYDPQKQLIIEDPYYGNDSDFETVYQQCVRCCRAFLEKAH
UniProt Q9UKV3: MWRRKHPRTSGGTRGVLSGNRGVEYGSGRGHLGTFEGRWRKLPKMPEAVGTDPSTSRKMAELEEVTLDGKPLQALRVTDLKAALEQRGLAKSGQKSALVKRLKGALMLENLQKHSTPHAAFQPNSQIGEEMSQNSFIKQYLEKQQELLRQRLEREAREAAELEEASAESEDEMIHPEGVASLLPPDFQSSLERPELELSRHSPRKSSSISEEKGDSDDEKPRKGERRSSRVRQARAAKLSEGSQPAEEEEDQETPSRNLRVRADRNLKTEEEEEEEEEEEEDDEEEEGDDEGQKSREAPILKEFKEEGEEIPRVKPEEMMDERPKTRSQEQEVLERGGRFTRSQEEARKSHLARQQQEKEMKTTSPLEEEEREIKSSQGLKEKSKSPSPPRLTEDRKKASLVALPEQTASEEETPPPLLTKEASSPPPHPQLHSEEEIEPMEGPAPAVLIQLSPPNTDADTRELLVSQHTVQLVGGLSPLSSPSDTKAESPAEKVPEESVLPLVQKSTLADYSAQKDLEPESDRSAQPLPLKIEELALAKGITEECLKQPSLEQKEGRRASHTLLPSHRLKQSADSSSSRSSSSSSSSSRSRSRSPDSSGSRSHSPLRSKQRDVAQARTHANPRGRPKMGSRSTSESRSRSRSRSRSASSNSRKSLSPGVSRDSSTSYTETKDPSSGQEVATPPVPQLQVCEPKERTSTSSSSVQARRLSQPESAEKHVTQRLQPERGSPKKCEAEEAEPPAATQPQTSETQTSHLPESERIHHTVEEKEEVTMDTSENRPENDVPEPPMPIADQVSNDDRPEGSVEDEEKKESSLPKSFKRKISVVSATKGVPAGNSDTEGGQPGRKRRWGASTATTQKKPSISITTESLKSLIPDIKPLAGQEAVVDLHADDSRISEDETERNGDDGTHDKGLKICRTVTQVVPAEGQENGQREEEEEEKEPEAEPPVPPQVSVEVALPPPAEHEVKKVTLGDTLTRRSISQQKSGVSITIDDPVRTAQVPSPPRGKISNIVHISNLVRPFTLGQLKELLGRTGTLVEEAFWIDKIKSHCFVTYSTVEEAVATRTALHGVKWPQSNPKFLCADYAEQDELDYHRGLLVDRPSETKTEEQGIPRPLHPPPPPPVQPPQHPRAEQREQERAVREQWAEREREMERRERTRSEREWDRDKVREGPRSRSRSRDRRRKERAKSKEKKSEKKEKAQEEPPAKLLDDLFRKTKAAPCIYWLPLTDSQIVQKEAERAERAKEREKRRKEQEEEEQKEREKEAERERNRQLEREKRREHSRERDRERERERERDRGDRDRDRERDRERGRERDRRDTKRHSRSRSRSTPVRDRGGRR
UniProt O95870: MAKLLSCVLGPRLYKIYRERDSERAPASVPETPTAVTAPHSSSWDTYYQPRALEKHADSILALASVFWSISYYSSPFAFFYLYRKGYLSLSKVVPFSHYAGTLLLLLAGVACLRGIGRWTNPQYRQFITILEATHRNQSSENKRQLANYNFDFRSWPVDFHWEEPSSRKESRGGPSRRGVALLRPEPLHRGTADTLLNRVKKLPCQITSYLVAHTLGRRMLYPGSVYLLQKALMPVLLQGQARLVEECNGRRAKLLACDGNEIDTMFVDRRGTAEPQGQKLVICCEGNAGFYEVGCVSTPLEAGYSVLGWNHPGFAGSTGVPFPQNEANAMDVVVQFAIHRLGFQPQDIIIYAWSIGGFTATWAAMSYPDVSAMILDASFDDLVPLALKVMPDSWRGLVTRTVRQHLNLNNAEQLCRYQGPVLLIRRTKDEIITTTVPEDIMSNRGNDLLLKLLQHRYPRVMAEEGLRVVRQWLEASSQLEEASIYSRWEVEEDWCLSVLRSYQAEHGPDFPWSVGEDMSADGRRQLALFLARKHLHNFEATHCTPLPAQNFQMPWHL
UniProt P11310: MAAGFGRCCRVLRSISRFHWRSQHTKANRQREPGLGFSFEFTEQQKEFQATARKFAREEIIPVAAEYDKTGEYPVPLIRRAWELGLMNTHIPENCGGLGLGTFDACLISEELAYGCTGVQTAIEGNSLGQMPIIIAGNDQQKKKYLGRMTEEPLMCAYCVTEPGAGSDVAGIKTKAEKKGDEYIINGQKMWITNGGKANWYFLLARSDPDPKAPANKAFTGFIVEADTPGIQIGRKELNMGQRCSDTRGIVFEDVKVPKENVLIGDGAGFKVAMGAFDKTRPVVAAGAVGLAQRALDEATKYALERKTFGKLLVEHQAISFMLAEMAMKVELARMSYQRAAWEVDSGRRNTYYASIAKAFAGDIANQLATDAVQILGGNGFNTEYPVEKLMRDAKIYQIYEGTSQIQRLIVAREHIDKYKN
UniProt Q9BTE6: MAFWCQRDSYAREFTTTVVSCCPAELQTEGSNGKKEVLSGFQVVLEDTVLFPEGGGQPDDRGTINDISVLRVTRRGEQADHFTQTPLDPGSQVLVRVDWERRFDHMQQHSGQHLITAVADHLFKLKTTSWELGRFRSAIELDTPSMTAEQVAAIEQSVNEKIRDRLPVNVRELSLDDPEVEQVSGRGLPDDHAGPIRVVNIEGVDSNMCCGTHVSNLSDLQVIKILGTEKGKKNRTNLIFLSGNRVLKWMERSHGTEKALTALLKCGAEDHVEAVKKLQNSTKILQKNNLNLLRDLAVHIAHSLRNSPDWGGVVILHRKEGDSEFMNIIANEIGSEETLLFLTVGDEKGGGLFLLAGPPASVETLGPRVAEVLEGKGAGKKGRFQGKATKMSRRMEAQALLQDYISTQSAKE

compound: CN1CCC(CNc2ccc3ncc(-c4cccc(OC(F)(F)F)c4)n3n2)CC1; assay: log2 fold change, soluble protein after heating vs DMSO (PISA); higher = thermal stabilisation; K562 cells, 10 uM, 30 min; active = over 0.2 and 3.5 SD of the protein, either way, in both replicates (recomputed)
Procedure, shortened: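 For each measurement, 10 μM compound was applied for 30 min to K562 cells at 2×10^6 cells/mL. Aliquots were heated for 3 min across 48°C-58°C, pooled, and extracted in PBS with 0.5% NP-40 at 4°C; the supernatant after 21,000xg for 90 min was soluble protein. This was quantified by TMTpro 16plex LC-MS/MS with channel sums equalised, and thermal stability was reported relative to control samples from duplicates, on a log2 fold-change scale.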

**Q.** Which log2 fold change does the source give for ACSF3 (UniProt Q4G176) here?
**A.** inactive: -0.116

**Q.** For ACAT1, A0A5F9ZHJ0, which log2 fold change is on record?
**A.** inactive: -0.067

**Q.** Which log2 fold change does the source give for AAMP (UniProt Q13685) here?
**A.** inactive: 0.054

**Q.** With ACADVL isoform 3 (UniProt P49748) as the target, how does the log2 fold change read?
**A.** inactive: -0.045

**Q.** For ACSL1 (UniProt P33121), which log2 fold change is on record?
**A.** active: -0.393

**Q.** How did the log2 fold change turn out when ABCA3 (UniProt Q99758) was run?
**A.** inactive: -0.263

**Q.** For ACVR1 (UniProt Q04771), which log2 fold change is on record?
**A.** active: 0.925

**Q.** Which log2 fold change does the source give for AAGAB (UniProt Q6PD74) here?
**A.** inactive: -0.228

**Q.** ACP2 (UniProt P11117) was tested. Which log2 fold change did it give?
**A.** inactive: -0.14

**Q.** How did the log2 fold change turn out when ABHD6 (UniProt Q9BV23) was run?
**A.** inactive: 0.096

**Q.** Which log2 fold change does the source give for ACACB (UniProt O00763) here?
**A.** inactive: 0.104

**Q.** How did the log2 fold change turn out when AAR2 (UniProt Q9Y312) was run?
**A.** inactive: -0.096

**Q.** Which log2 fold change does the source give for ACP1 (UniProt P24666) here?
**A.** inactive: -0.061

**Q.** With ACO2 (UniProt Q99798) as the target, how does the log2 fold change read?
**A.** active: -0.344

**Q.** Which log2 fold change does the source give for ACIN1 (UniProt Q9UKV3) here?
**A.** inactive: -0.097

**Q.** With ABHD11 (UniProt Q8NFV4) as the target, how does the log2 fold change read?
**A.** inactive: -0.126

**Q.** ACTN4 (UniProt K7EJH8) was tested. Which log2 fold change did it give?
**A.** inactive: 0.071

**Q.** For ABHD16A (UniProt O95870), which log2 fold change is on record?
**A.** inactive: 0.283

**Q.** Which log2 fold change does the source give for ACADM isoform 2 (UniProt P11310) here?
**A.** inactive: -0.011

**Q.** For ABITRAM (UniProt Q9NX38), which log2 fold change is on record?
**A.** inactive: -0.093

**Q.** With AAK1 (UniProt Q2M2I8) as the target, how does the log2 fold change read?
**A.** inactive: 0.27

**Q.** For AARSD1 isoform 3 (UniProt Q9BTE6), which log2 fold change is on record?
**A.** inactive: 0.021

**Q.** How did the log2 fold change turn out when ACTBL2 (UniProt Q562R1) was run?
**A.** inactive: 0.065
